Values quoted from earlier work, collected in patent publication US6574495B1, “Para-hydrogen labelled agents and their use in magnetic resonance imaging” (Amersham Health AS, priority 1997, dated 2003).
At least one structure is not confirmed: it was looked up by name or label, or the drawing left a doubt.

Conditions: hydrogenation catalysts; + / − not defined

| Structure (SMILES) | Water Solubility |
| --- | --- |
| [Cl-].[Rh].c1ccc(P(c2ccccc2)c2ccccc2)cc1.c1ccc(P(c2ccccc2)c2ccccc2)cc1.c1ccc(P(c2ccccc2)c2ccccc2)cc1 [(PPh3) RhCl] | − |
| [C-]#[O+].[Cl-].[Ir].c1ccc(P(c2ccccc2)c2ccccc2)cc1.c1ccc(P(c2ccccc2)c2ccccc2)cc1 [IrCl(CO) (PPh3)2] | − |
